# Results reported in the supplement of paper PMC3334620.
# In all, about 33,000 sequences were measured (“E-score (-0.5 to 0.5)”: median about -0.016, highest 2% from about 0.3 on). This is one part of the list.
# Target: T1, Yer184c (UniProt P39961)
# T1 sequence: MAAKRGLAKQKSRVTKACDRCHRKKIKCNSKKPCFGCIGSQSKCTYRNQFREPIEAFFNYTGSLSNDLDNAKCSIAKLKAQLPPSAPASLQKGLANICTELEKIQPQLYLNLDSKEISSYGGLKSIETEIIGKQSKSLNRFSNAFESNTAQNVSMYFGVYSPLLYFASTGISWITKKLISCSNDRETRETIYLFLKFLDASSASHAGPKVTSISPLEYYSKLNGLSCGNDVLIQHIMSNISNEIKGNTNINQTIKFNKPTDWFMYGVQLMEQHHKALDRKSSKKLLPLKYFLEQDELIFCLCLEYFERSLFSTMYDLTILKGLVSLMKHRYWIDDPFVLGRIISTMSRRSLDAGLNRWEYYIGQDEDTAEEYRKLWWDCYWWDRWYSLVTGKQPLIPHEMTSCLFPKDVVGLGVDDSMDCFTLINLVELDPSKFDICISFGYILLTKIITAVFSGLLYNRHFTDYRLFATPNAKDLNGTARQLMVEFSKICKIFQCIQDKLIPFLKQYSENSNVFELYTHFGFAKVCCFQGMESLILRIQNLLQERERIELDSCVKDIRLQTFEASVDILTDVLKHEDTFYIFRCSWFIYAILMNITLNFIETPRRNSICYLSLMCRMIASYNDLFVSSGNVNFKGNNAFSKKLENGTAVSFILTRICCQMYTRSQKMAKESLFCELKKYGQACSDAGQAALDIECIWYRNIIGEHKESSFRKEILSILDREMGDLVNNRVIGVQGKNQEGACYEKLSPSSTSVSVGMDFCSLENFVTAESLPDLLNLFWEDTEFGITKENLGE
# Assay: PBM E-score (8-mer binding enrichment) (E-score (-0.5 to 0.5)); higher = stronger / more preferred TF binding
# Details: protein concentration: 100 nM; construct: GST-full length
# Method in brief: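 Full-length yeast transcription factors or their DNA-binding domains, GST-tagged and expressed with PURExpress, were applied at about 100-200 nM to universal all-10-mer Agilent arrays. These arrays had been made double-stranded by primer extension on fresh or once-stripped slides. Detection used fluorescent anti-GST, normalisation used masliner, and E-scores for ungapped eight-base words pooled with reverse complements came from the Universal PBM Analysis Suite.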
row,Sequence,PBM E-score
1,CACCCTGG,-0.263
2,CCTCATGC,-0.323
3,CGATTAGC,0.0101
4,AACGGATC,0.306
5,ATCATTCA,0.195
6,CGCTAGAG,-0.192
7,CTTCAGGC,-0.121
8,GAGGTGTA,-0.15
9,CAAGGGTG,-0.209
10,GTGTAAGA,-0.0634
11,GGAACGAA,0.0929
12,ACCCCTTA,-0.129
13,CTAGAGAG,-0.149
14,CTACCGTC,-0.0721
15,CGGGTTAC,0.00164
16,ACTTTGCT,-0.0767
17,TAAGGTAA,0.0874
18,GCTGCAGC,-0.209
19,GCGGATTA,0.0175
20,GCCTTTAA,0.0977
21,AATTCGGC,0.24
22,CGTCATAC,0.129
23,GAGAGAGA,-0.0723
24,GCTTCGAA,0.126
25,CTGCGCGA,-0.145

row,Sequence,PBM E-score
1,ATATGTGG,0.00073
2,AGACAACT,0.00867
3,AGTTCCCC,-0.0634
4,AAAGCATC,0.123
5,TACTCGAA,0.0325
6,AAGTAAGG,-0.00028
7,ATGGGGAA,-0.103
8,GTGATCAC,0.0663
9,AATCGACC,0.0634
10,AAGGGGGC,-0.276
11,AGTGAAGC,0.013
12,GGTAAACA,0.202
13,AGCTGAAC,-0.104
14,AAATCTGG,0.154
15,AACGGTAT,0.0653
16,CGCGGATC,0.13
17,CGCACAGC,0.00671
18,AATGGGTA,0.235
19,GCCCCTCC,-0.27
20,CCTGCATA,-0.105
21,CCCAGTAC,-0.18
22,AGGACTTA,-0.159
23,AATGTGCC,0.0817
24,GGGAGACA,-0.0399
25,CCGCGAGC,0.0253

# Individual results from the results shown.
# Value of GGAACGAA under PBM E-score: 0.0929
# Value of ATGGGGAA under PBM E-score: -0.103
# Value of AGACAACT under PBM E-score: 0.00867
# Value of CAAGGGTG under PBM E-score: -0.209
# Value of AATGGGTA under PBM E-score: 0.235

# (listing goes on)

row,Sequence,PBM E-score
1,GCGTTACC,-0.101
2,GTGTCGCA,-0.0721
3,CCCGCGTC,0.0602
4,GAGTAGCC,-0.0142
5,TCCTTTAA,0.0155
6,CGAGTGAC,-0.0518
7,ATATAATG,-0.0164
8,ACTGTGGG,-0.216
9,AGATTGCA,0.0291
10,CGTAGATA,-0.00543
11,CCGGGCAA,0.235
12,GCGACACA,-0.159
13,CACCAGTC,-0.277
14,ATCGTAGG,-0.128
15,AGAGACCG,-0.00169
16,GCCCAATA,-0.138
17,ATTGTCAC,0.0514
18,CCTAACCA,-0.0677
19,GGGTAGCA,-0.0682
20,TCACCAGA,-0.25
21,CCCCGCTA,-0.0597
22,GGTCGTTA,0.0632
23,GTGCCACA,-0.256
24,ATGTTGCA,-0.133
25,AAAGGTCA,-0.0675

row,Sequence,PBM E-score
1,GGGACGAC,-0.0383
2,AGCGACGA,-0.12
3,TACCATAA,0.134
4,TACAATAA,0.14
5,CGTTAAAA,0.00552
6,CGGGTAAG,-0.0605
7,ACTATCCC,-0.28
8,ACCCCCGG,-0.0667
9,GGAACACA,0.0766
10,AAGAGCGC,-0.00569
11,CGGCCGTC,0.278
12,CATCCGAA,0.338
13,CACTGCCC,-0.127
14,AGGCGGCG,-0.069
15,AAAGCGGA,0.0673
16,GCACCTCC,-0.191
17,CTTGGAGC,-0.259
18,CATGGAGC,-0.175
19,GCCGTATA,0.293
20,CCGCATAA,0.224
21,CCAAGAAG,-0.166
22,AAATCTTA,0.106
23,CTTTCGTC,-0.0387
24,CTGACATA,0.0194
25,ACTATTCG,0.0869

row,Sequence,PBM E-score
1,CGGCACTA,0.275
2,ACAGTAGC,-0.0134
3,GATTGCAA,0.0613
4,AGATGCGC,-0.0784
5,CGAACTAC,0.0997
6,ACTATAAC,-0.0771
7,AGAGGTCC,0.14
8,CTGAGAGC,-0.129
9,GCCGACGA,0.194
10,ACGTAGAC,-0.3
11,CGATTCGC,0.166
12,AGAAAAGC,0.0636
13,GACGAGAA,0.138
14,GGCGCACA,-0.0598
15,CGTAAAGC,-0.157
16,TAATATCA,0.245
17,ATCTTACA,0.031
18,CTCATCCA,-0.0545
19,TTGGGAAA,0.153
20,CCCGGTAG,0.115
21,ACCGAGCC,0.221
22,CCAATCGG,0.0763
23,TACTAGGA,0.0796
24,AGGACACT,-0.209
25,GACTGGCA,-0.226

row,Sequence,PBM E-score
1,AGCAATCG,-0.0197
2,CAATTGGG,-0.124
3,AGGATTGA,0.12
4,CTGGGCGC,-0.284
5,ACCCAATC,-0.00791
6,AGAACCAA,-0.034
7,ATGGCCGG,0.215
8,CCCGCTCA,-0.141
9,AGAAGGAG,-0.293
10,GAGTGATA,0.0635
11,AACGCCAA,-0.0338
12,CATTCCAG,-0.119
13,GGAACCCA,0.0157
14,AGTGTGGC,-0.0838
15,ATGTGGCC,-0.0771
16,CTCTCTGA,-0.111
17,CTAACCGA,0.206
18,CATTGTTA,0.0974
19,CCTTCGCG,-0.0224
20,CGCATGGA,-0.166
21,CATTATGG,-0.215
22,ATCTTGTC,0.0338
23,ATACGGTC,-0.0326
24,ATTGCGCA,-0.0497
25,ATTGGTTC,0.197

row,Sequence,PBM E-score
1,GGACTCGA,-0.205
2,TACCACGA,0.0393
3,CGAAGCTC,0.0346
4,CAAAACCG,0.116
5,GATCGAGA,0.0688
6,AGACAGAG,-0.0872
7,ATGCAGCC,0.131
8,CGGAATGA,0.233
9,AAGCGAGG,-0.0843
10,CGACACAC,0.0942
11,AGGGAAAT,-0.166
12,CGGCAACC,0.272
13,ACTACTTC,0.0106
14,CAGTCTAC,-0.179
15,GATATATA,0.349
16,CGCTATGC,-0.174
17,TGCTCTAA,-0.0827
18,AGGCGCAG,-0.296
19,GGCTTCTA,-0.0763
20,ACACCACC,-0.207
21,GCCATTCC,0.00305
22,ATTCTGTG,0.165
